Data from PubChem BioAssay AID2685 (National Center for Advancing Translational Sciences (NCATS), 2010).
The other results are listed elsewhere or left out. The main result of the screen is listed elsewhere. These columns were measured beside it and carry no call. Most of these compounds were active or inconclusive in the main read-out, so they are no random draw. The note in brackets gives the kind of curve behind each potency; many fits are weak.

Assay: qHTS Assay for Lipid Storage Modulators in Drosophila S3 Cells;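 for cell number change: cells counted by Cell Tracker Red CMTPX staining in the red channel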
Conditions: BODIPY lipid droplet fluorescence, 18-24 h; for cell number change: measured here: cell count max response, cells fed with added oleic acid
Procedure, shortened: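 Drosophila S3 cells loaded with oleic acid (400 uM, as added) and compounds at several concentrations; lipid droplets imaged by 488-nm laser-scanning cytometry, 500–530 nm intensity and object ratio to cell channel. Percent activity normalized to 20 uM Triacsin C.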

[1] = measured here: cell number channel AC50, cells fed with added oleic acid
[2] = measured here: lipid fluorescence (Fed channel) AC50, cells fed with added oleic acid

Compound: COc1ccc(CCNc2ccc(C(CC(N)=O)NC(=O)c3cc(OC)ccc3OC)cc2[N+](=O)[O-])cc1 (stereo not drawn)
- cell number change: 16.8%
- AC50 [1]: 0.00517 µM [rising, full curve, poor fit]

Compound: Cc1ccc(C(=O)OCC(=O)N2CC(=O)Nc3ccccc32)s1
- AC50 [1]: 4.11 µM [falling, single point]
- AC50 [2]: 0.00461 µM [falling, full curve, poor fit]

Compound: O=C(O)c1cnc(-c2ccccc2)nc1Sc1cccc(Cl)c1
- AC50 [2]: 29.1 µM [rising, single point]

Compound: O=C(NC(=S)N1CCCCC1)C12CC3CC(CC(C3)C1)C2
- cell number change: -6.84%

Compound: CC(C)(C)NC(=O)C(=O)NCc1ccccn1
- cell number change: 41.1%
- AC50 [1]: 6.51 µM [rising, full curve]
- AC50 [2]: 8.2 µM [rising, partial curve, poor fit]

Compound: O=C(NC(=S)NCc1ccc(-c2nc3ccccc3s2)cc1)c1ccco1
- cell number change: -61.9%
- AC50 [1]: 23.1 µM [falling, single point]
- AC50 [2]: 20.6 µM [falling, single point]

Compound: CSc1ccc(-c2nnn(Cc3ccccn3)n2)cc1
- cell number change: 34.1%
- AC50 [1]: 23.1 µM [rising, partial curve, poor fit]

Compound: O=C(NC(=S)Nc1ccc(S(=O)(=O)Nc2nccs2)cc1)c1ccc(F)cc1
- cell number change: -8.19%

Compound: CCn1c(=NC(=O)c2ccc(S(=O)(=O)N(C)C)cc2)sc2cccc(OC)c21
- cell number change: -9.79%
- AC50 [2]: 1.03 µM [rising, full curve, poor fit]

Compound: CC(=O)c1ccccc1NC(=O)C1CCCN(C(=O)c2ccc(Cl)cc2)C1 (stereo not drawn)
- cell number change: -11.7%
- AC50 [2]: 7.31 µM [rising, partial curve, poor fit]

Compound: CCN(CC)S(=O)(=O)c1cc(NS(=O)(=O)c2ccccc2)ccc1C
- cell number change: 22%
- AC50 [2]: 29.1 µM [rising, single point]

Compound: CCC(C)NC(=O)CCCc1ccccc1 (stereo not drawn)
- cell number change: -9.26%
- AC50 [1]: 0.184 µM [falling, full curve, poor fit]
- AC50 [2]: 1.46 µM [falling, partial curve, poor fit]

Compound: Cc1ccc(OCCC(=O)OCC(=O)NCCc2ccccc2)cc1
- AC50 [2]: 6.51 µM [rising, single point]

Compound: Cc1sc(NC(=O)CSc2nnnn2C)c(C#N)c1C
- cell number change: 30.3%
- AC50 [2]: 0.116 µM [rising, full curve, poor fit]

Compound: CCOC(=O)N1CCC(NC(=O)c2cc3c(-c4ccccc4F)nn(C)c3s2)CC1
- cell number change: -12.5%
- AC50 [2]: 4.61 µM [rising, single point]

Compound: Cc1cc2[nH]c(=O)cc(-c3ccccc3)n2n1
- cell number change: -18.1%

Compound: Nc1ccc2nc3c(=O)n(C4CCCCC4)c(=O)[nH]c3nc2c1
- cell number change: -78.6%
- AC50 [1]: 20.6 µM [falling, partial curve]
- AC50 [2]: 23.1 µM [falling, partial curve]

Compound: CCOC(=O)c1ccc(N2C(=O)CC(N3CCN(C/C=C/c4ccccc4)CC3)C2=O)cc1 (stereo not drawn)
- cell number change: 39.7%
- AC50 [1]: 16.4 µM [rising, single point]
- AC50 [2]: 16.4 µM [rising, partial curve]

Compound: CC(=O)NCCCc1nc2ccccc2n1Cc1ccc(C)cc1
- cell number change: 29.8%
- AC50 [2]: 6.51 µM [falling, single point]

Compound: C=CCn1c(CSCc2ccc(C)cc2)nnc1SCC(=O)NCc1ccccc1
- cell number change: 46.9%
- AC50 [1]: 11.6 µM [rising, partial curve]
- AC50 [2]: 2.91 µM [falling, partial curve]

Compound: COc1ccccc1NC(=O)Nc1nc(CC(=O)Nc2ccc(F)c(F)c2)cs1
- AC50 [1]: 1.64 µM [rising, partial curve]

Compound: COc1ccc(/C=C2\SC(=S)N(NS(=O)(=O)c3ccccc3)C2=O)c(OC)c1
- cell number change: 57%
- AC50 [1]: 7.31 µM [rising, partial curve, poor fit]
- AC50 [2]: 29.1 µM [rising, single point]

Compound: Cn1c(=O)c(C(N)=S)cn(-c2ccccc2)c1=O
- cell number change: 6.94%

Compound: CCC(CC)C(=O)NCc1cccnc1
- cell number change: 40.8%
- AC50 [1]: 3.66 µM [rising, full curve]
- AC50 [2]: 3.26 µM [rising, full curve]

Compound: COc1cccc(NC(=O)CN2C(=O)NC(C)(CC(C)C)C2=O)c1 (stereo not drawn)
- cell number change: 61.2%
- AC50 [2]: 1.16 µM [rising, full curve]

Compound: COc1ccc(S(=O)(=O)CCC(=O)Nc2c(C)cccc2C)cc1
- cell number change: -7.8%
- AC50 [2]: 2.91 µM [rising, single point]

Compound: CC(C)c1nc(SCC(=O)Nc2ccc(C(=O)O)cc2)c2c3c(sc2n1)CCCC3
- cell number change: 15%

Compound: O=C(NCCc1ccc(Cl)cc1)c1ccc2ccccc2n1
- cell number change: 5%
- AC50 [2]: 16.4 µM [rising, single point]

Compound: Cc1ccc(OCCC(=O)Nc2ccc(C)c(S(=O)(=O)N3CCOCC3)c2)cc1
- cell number change: 5.33%
- AC50 [2]: 0.0731 µM [rising, full curve, poor fit]

Compound: O=C(CCCCCN1C(=O)CCC1=O)Nc1ncn[nH]1
- cell number change: -54.4%
- AC50 [1]: 20.6 µM [falling, partial curve, poor fit]

Compound: CC(NC(=O)c1ccccc1Br)c1nnc(SCC(=O)NC2=NCCS2)n1C (stereo not drawn)
- cell number change: -18.4%

Compound: CCOc1ccc(S(=O)(=O)n2cc(-c3ccccc3)c(N)n2)cc1
- cell number change: 2.23%

Compound: Cc1ccc(S(=O)(=O)c2nnn3c2nc(N2CCOCC2)c2ccccc23)c(C)c1
- AC50 [1]: 0.092 µM [rising, partial curve, poor fit]

Compound: Cc1nc(N)ncc1Sc1ccc(Cl)cc1
- cell number change: 16.2%
- AC50 [2]: 29.1 µM [rising, single point]

Compound: Cc1ccc(NCC(=O)N/N=C/c2cccn2C)cc1
- cell number change: 11.4%
- AC50 [2]: 32.6 µM [rising, single point]

Compound: O=C(CSc1n[nH]c(-c2ccco2)n1)Nc1ccccc1F
- cell number change: 10.4%

Compound: COc1cccc(Cn2nnc3c(=O)[nH]c(C4CCCN(C(=O)c5ccccc5Cl)C4)nc32)c1 (stereo not drawn)
- cell number change: -79.8%
- AC50 [1]: 20.6 µM [falling, partial curve]
- AC50 [2]: 9.2 µM [falling, partial curve]

Compound: Cc1cc(N/C(=N\S(=O)(=O)c2ccc(F)cc2F)c2ccccc2)no1
- cell number change: 20.5%
- AC50 [2]: 0.731 µM [rising, single point]
